Where a chain is given by its changes, count along the chain named. No constants are given. Whether binding was seen depends on the method and setting. A result given as binding can be weak or reduced; the word gives no strength.
B1: anti-CD94 antibody 18H3 (antibody, V domains shown)
VH: EVQLVQSGAEVKKPGESLKISCKGSGYRFTSYWIGWVRQMPGKGLEWMGIIYPGDSDTRYSPSFQGQVIISADKSITTAFLQWSSLKASDTAMYYCARPFDYGGSPGYFDYWGQGTLVTVSS
VL: DIQMTQSPSTLSASVGDRVTITCRASQSIRSWLAWYQQKPGKAPKLLIYKASSLESGVPSRFSGSGSGTEFTLTISSLQPDDFATYYCQQYNTFWTFGQGTKVEIK
B2: anti-CD94 antibody ATX-123 (antibody, human IgG1, V domains shown)
VH: QVQLVQSGAEVKKPGASVKVSCKASGYTFTSYGISWVRQAPGQGLEWMGWISAYNGNTNYAQKFQGRVTMTTDTSTNTAYMELRSLRSDDTAVYYCARDRGRFGELLSDYWGQGTLVTVSS
VL: DIVMTQSPSSVSASVGDRVTITCRASQGISNYLAWYQQKPGKAPKLLIYAASSLQSGVPSRFSGSGSGTDFTLTISSLQPEDFATYYCLQHNSYPFTFGPGTKVDIK
B3: anti-CD94 antibody ATX-130 (antibody, human IgG1, V domains shown)
VH: EVQLLESGGGLVKPGGSLRLSCAASGFTFSSYSMNWVRQAPGKGLEWVSSISTSSNFIYYADSVKGRFTISRDNAKNSLYLQMNSLRAEDTAVYYCARDLGRYYYYMDVWGKGTTVTVSS
VL: DIVMTQSPSSLSASVGDRVTITCRASQSISSWLAWYQQKPGKAPKSLIYAASSLQSGVPSKFSGSGSGTDFTLTISSLQPEDVATYYCQKYNSAPFTFGPGTKVDIK
B4: anti-CD94 antibody ATX-126 (antibody, human IgG1, V domains shown)
VH: QVQLQESGGGLVQPGGSLKLSCAASGFTFSSYSMNWVRQAPGKGLEWVSSISTSSNFIYYADSVKGRFTISRDNSKNTLYLQMNSLRAEDTAVYYCVRDMGPFYSFYYMDVWGNGTTVTVSS
VL: DIQVTQSPATLSLSPGERATLSCRASQSVSSSYLAWYQQKPGQAPRLLIYGASNRATGIPARFSGSGSGTDFTLTISSLQPEDFATYYCLQHNSYPPTFGGGTKVDIK
B5: anti-CD94 antibody ATX-129 (antibody, human IgG1, V domains shown)
VH: EVQLVQSGGGLVQPGGSLRLSCAASGFTFSSYWMSWVRQAPGKGLEWVANIKQDGSAKYYVDSVKGRFTISRDNAKNSLYLQMNSLRAEDTAVYYCARGYYFDYWGQGTLVTVSS
VL: EIVLTQSPSTLSASVGDRVTITCRVSQGISSYLNWYRQKPGKVPKLLIYAASSLQSGVPSRFSGSGSGTDFTLTISSLQPEDFATYYCQQSYSTPITFGQGTRLEIK
B6: anti-CD94 antibody ATX-125 (antibody, human IgG1, V domains shown)
VH: QVQLQQSGPGLVKPSETLSLTCTVSGGSISSIIYYWGWIRQPPGKGLEWIGSIYYSGSTYYNPSLKSRVTISVDTSKNQFSLNLSSVTAADTAVYYCARLPLTGEFAFDIWGQGTMVTVSS
VL: EIVLTQSPATLSLSPGERATLSCRASQSVSTYLAWFQQKPGQAPRLLIYGASSRATGIPDRFSGSGSGTDFTLTISRLEPEDFAVYYCQQYGSSPITFGQGTRLEIK
B7: anti-CD94 antibody ATX-127 (antibody, human IgG1, V domains shown)
VH: QVQLQQSGPGLVKPSGTLSLTCAVSGGSISSRYWWTWVRQPPGKGLEWIGEIYHSGTTNYNPSLESRVTISVDKSKNQFSLKVSSVTAADTAVYYCARSPNWGYYYYYMDVWGKGTTVTVSS
VL: EIVMTQSPATLSVSPGERATLSCRASQSVSSSYLAWYQQKPGQAPRLLIYGASSRATGIPDRFSGSGSGTDFTLTISRLESEDFAVYYCQQYGRSLTFGGGTKVEIK
B8: ATX-130-KIF (antibody, human IgG1, V domains shown)
VH: B3 VH
VL: B3 VL
B9: anti-CD94 antibody ATX-124 (antibody, human IgG1, V domains shown)
VH: B2 VH with F64L, N77S, L83V, L107F, S108F, Y110H
VL: B2 VL
B10: anti-CD94 antibody ATX-122 (antibody, V domains shown)
VH: QVQLVQSGAEVKKPGASLKVSCKASGYTFTSYGVSWVRQAPGQGLEWVGWISPYNGNTNYAHNLQGRVAMTTDTSTSTAYMELRSLRSDDMAVYYCARDRGRFGELFFDYWGQGTLVTVSS
VL: B2 VL

What follows are binders tested against cynomolgus CD94 (cynomolgus monkey) (assay: flow cytometry on cynomolgus CD94-expressing HEK293 cells).

| binding | Binder |
| --- | --- |
| binds | B1 |

Each binder was assayed against cynomolgus CD94 (cynomolgus monkey) (assay: flow cytometry on HEK293 cells overexpressing cynomolgus CD94).

| binding | Binder |
| --- | --- |
| binds | B2 |
| binds | B3 |
| binds | B4 |
| binds | B5 |
| binds | B6 |
| binds | B7 |

These binders were tested against cynomolgus CD94 (cynomolgus monkey) (assay: flow cytometry on HEK293 cells expressing cynomolgus CD94 (FIG. 31B)).

| binding | Binder |
| --- | --- |
| binds | B2 |
| binds | B3 |
| binds | B4 |
| binds | B5 |
| binds | B6 |
| binds | B7 |

What follows are binders tested against cynomolgus CD94 (cynomolgus monkey) (assay: flow cytometry on cynomolgus CD94-expressing HEK293 cells (FIG. 3A, 3B)).

| binding | Binder |
| --- | --- |
| binds | B1 |

The binders below were run against cynomolgus CD94 (cynomolgus monkey) (assay: flow cytometry, ATX-130-KIF Alexa Fluor 647 at 50 nM on cynomolgus PBMCs).

| binding | Binder |
| --- | --- |
| binds | B8 |

Each binder was assayed against cynomolgus CD94 (cynomolgus monkey) (assay: flow cytometry, ATX-130-KIF Alexa Fluor 647 at 50 nM on cynomolgus PBMCs (FIG. 18)).

| binding | Binder |
| --- | --- |
| binds | B8 |

What follows are binders tested against cynomolgus CD94 (cynomolgus monkey) (assay: flow cytometry on HEK293 cells overexpressing cynomolgus CD94; column 'Cyno CD94 cross-reactivity').

| binding | Binder |
| --- | --- |
| binds | B2 |
| binds | B3 |
| binds | B4 |
| binds | B5 |
| binds | B6 |
| binds | B7 |

| Binder | binding |
| --- | --- |
| B9 | no binding (tested: 100 nM highest concentration tested) |
| B10 | no binding (tested: 100 nM highest concentration tested) |

What follows are binders tested against cynomolgus CD94 (cynomolgus monkey) (assay: flow cytometry on HEK293 cells overexpressing cynomolgus CD94; unconjugated antibody in a dilution series, Alexa Fluor 647 anti-human secondary antibody).

| binding | Binder |
| --- | --- |
| binds | B3 |
| binds | B4 |
| binds | B5 |
| binds | B6 |
| binds | B7 |
